# Data source: PubChem BioAssay AID1259254 (NCATS, 2017)
# Test: 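Genome-wide screen for genes that prevent DNA re-replication in cancer cells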 (primary screen)
# Cell system: human HCT116 colorectal cancer cells
# Reagents: single siRNA against human genes
# Timing: 3 days
# Measured: 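Imaged Hoechst DNA stain sorts each cell into a cycle phase by DNA amount; per plate, G2 fraction set to 0% for non-targeting and 100% for GMNN siRNA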
# Scale: G2 robust z-score and G2 cells, % of GMNN control: higher = more G2 cells, more excess DNA replication; raw share of cells in G2: higher = larger share of cells with G2 DNA content
# Rule for the call: 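An siRNA counts as active if its G2 robust z-score lies at least 5 MADs above the screen median; here such calls match roughly 38% of GMNN control or more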
# The whole screen tested about 59,000 reagents; this is a random part of them. Over the whole deposit, about 1,550 (2.6%) were called active. 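G2 share is only a proxy for re-replication; each gene was hit by three separate siRNAs, and active genes were retested.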 Raw values vary from plate to plate and are shown uncorrected. The numbers tell different reagents against one gene apart. No sequences are given here. Not stated in the record: the amount of reagent.
gene,siRNA no.,G2 robust z-score,"G2 cells, % of GMNN control",raw share of cells in G2 (%),Outcome
DIO3,1,-0.661,-1.68,3.52,inactive
DIO3,2,0.651,7.55,7.66,inactive
DIO3,3,-0.781,-2.53,4.07,inactive
ZC3H6,1,-0.369,0.368,3.9,inactive
ZC3H6,2,0.215,4.48,5.35,inactive
ZC3H6,3,0.352,5.45,6.97,inactive
SUPT20HL2,1,2.1,17.7,9.95,inactive
SUPT20HL2,2,0.0873,3.58,4.16,inactive
SUPT20HL2,3,-0.117,2.14,3.44,inactive
LRRC2,1,-0.167,1.79,5.36,inactive
LRRC2,2,0.81,8.67,8.49,inactive
LRRC2,3,0.203,4.39,3.86,inactive
EIF3I,1,3.34,26.4,14.2,inactive
EIF3I,2,1.19,11.3,9.68,inactive
EIF3I,3,4.18,32.4,16.6,inactive
OSBPL3,1,-0.846,-2.98,3.01,inactive
OSBPL3,2,1.55,13.9,12.5,inactive
OSBPL3,3,-0.749,-2.3,3.42,inactive
DNA2,1,4.96,37.9,18.8,inactive
DNA2,2,0.782,8.47,7.01,inactive
DNA2,3,1.46,13.2,9.68,inactive
SCRT1,1,0.57,6.98,7.37,inactive
SCRT1,2,0.786,8.5,8.97,inactive
SCRT1,3,-0.891,-3.3,3,inactive
DDX41,1,0.289,5,6.09,inactive
DDX41,2,-0.793,-2.62,2.8,inactive
DDX41,3,0.268,4.85,8.15,inactive
EVI5L,1,-0.101,2.25,5.33,inactive
EVI5L,2,0.147,4,6.68,inactive
EVI5L,3,-0.711,-2.04,4.73,inactive
LINC01191,1,1.21,11.5,7.02,inactive
LINC01191,2,3.11,24.8,13.2,inactive
LINC01191,3,-0.643,-1.55,2.83,inactive
S100A7,1,-0.103,2.24,4.35,inactive
S100A7,2,-0.32,0.716,5.18,inactive
S100A7,3,-0.926,-3.55,1.82,inactive
ZNF731P,1,-0.217,1.44,4.66,inactive
ZNF731P,2,-0.0933,2.31,4,inactive
ZNF731P,3,-0.337,0.598,3.39,inactive
COL4A1,1,0.547,6.82,8.5,inactive
COL4A1,2,-0.196,1.59,4.67,inactive
COL4A1,3,-0.354,0.475,3.71,inactive
SSTR4,1,1.17,11.2,9.85,inactive
SSTR4,2,10.6,77.2,26.9,active
SSTR4,3,0.642,7.49,7.13,inactive
LOC647481,1,-0.895,-3.33,2.52,inactive
LOC647481,2,1.9,16.3,9.28,inactive
LOC647481,3,1.27,11.9,6.81,inactive
THTPA,1,-0.568,-1.03,4.13,inactive
THTPA,2,0.151,4.03,6.41,inactive
THTPA,3,0.167,4.14,3.79,inactive
CSF3,1,-0.599,-1.24,4.72,inactive
CSF3,2,0.641,7.48,6.83,inactive
CSF3,3,-0.927,-3.56,2.13,inactive
RPL23AP37,1,2.71,22,10.1,inactive
RPL23AP37,2,0.911,9.38,5.98,inactive
RPL23AP37,3,0.0402,3.25,5.4,inactive
INHA,1,-1.08,-4.65,3.35,inactive
INHA,2,-1.71,-9.08,2.23,inactive
INHA,3,-0.64,-1.54,3.64,inactive
MAD1L1,1,-1.26,-5.9,2.51,inactive
MAD1L1,2,0.509,6.55,6.49,inactive
MAD1L1,3,2.8,22.7,11.4,inactive
HJV,1,-0.338,0.592,3.27,inactive
HJV,2,1.92,16.5,9.36,inactive
HJV,3,1.58,14.1,7.26,inactive
KNG1,1,-0.123,2.1,5.81,inactive
KNG1,2,1.41,12.9,10.6,inactive
KNG1,3,-0.429,-0.0537,4.18,inactive

An excerpt from above, showing only “raw share of cells in G2 (%)”.
DNA2 #1	18.8
DNA2 #2	7.01
DNA2 #3	9.68
SCRT1 #1	7.37
SCRT1 #2	8.97
SCRT1 #3	3
DDX41 #1	6.09
DDX41 #2	2.8
